From the supplement of paper PMC10849652
Some of the results follow.

Sequences of proteins named here, by UniProt entry; tags and fusion partners are left off. A change or cut given only in a name is not applied to a line headed by its entry.
UniProt O75865, whole entry, looked up: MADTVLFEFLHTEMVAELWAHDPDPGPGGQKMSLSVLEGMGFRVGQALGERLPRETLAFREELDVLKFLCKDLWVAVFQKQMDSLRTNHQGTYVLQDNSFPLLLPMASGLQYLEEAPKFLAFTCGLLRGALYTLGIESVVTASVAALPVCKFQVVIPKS
UniProt Q15035: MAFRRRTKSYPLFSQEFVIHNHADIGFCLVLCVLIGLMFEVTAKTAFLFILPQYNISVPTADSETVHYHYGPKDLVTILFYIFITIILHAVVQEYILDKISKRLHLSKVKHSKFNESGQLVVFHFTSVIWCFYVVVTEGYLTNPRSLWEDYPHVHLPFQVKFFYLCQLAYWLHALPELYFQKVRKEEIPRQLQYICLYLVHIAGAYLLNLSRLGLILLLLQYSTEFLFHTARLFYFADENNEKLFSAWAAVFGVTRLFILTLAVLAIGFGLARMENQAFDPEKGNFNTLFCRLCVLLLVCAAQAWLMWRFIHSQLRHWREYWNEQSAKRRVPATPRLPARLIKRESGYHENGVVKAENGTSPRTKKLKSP
UniProt Q15628: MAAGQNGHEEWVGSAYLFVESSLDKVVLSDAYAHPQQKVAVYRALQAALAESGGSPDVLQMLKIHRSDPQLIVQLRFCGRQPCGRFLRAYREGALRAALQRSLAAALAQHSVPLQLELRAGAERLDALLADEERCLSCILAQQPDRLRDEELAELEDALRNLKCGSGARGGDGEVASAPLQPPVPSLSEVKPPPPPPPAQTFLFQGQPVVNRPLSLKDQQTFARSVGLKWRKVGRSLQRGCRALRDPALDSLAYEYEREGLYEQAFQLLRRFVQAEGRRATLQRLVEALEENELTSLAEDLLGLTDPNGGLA
UniProt Q6PJ69: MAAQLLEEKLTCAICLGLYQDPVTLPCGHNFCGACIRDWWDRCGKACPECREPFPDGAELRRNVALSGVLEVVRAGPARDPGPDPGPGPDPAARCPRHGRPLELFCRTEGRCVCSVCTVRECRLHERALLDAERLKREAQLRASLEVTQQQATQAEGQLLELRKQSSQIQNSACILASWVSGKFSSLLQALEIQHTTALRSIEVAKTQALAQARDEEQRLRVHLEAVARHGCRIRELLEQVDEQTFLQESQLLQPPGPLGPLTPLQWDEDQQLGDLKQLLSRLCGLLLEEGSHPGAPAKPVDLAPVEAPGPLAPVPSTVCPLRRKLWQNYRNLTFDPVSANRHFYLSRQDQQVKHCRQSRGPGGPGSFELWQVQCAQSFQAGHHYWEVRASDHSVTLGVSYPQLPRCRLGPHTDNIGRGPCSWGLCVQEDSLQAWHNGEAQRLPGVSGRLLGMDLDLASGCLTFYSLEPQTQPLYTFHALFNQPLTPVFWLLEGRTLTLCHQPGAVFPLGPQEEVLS
UniProt Q8TEL6: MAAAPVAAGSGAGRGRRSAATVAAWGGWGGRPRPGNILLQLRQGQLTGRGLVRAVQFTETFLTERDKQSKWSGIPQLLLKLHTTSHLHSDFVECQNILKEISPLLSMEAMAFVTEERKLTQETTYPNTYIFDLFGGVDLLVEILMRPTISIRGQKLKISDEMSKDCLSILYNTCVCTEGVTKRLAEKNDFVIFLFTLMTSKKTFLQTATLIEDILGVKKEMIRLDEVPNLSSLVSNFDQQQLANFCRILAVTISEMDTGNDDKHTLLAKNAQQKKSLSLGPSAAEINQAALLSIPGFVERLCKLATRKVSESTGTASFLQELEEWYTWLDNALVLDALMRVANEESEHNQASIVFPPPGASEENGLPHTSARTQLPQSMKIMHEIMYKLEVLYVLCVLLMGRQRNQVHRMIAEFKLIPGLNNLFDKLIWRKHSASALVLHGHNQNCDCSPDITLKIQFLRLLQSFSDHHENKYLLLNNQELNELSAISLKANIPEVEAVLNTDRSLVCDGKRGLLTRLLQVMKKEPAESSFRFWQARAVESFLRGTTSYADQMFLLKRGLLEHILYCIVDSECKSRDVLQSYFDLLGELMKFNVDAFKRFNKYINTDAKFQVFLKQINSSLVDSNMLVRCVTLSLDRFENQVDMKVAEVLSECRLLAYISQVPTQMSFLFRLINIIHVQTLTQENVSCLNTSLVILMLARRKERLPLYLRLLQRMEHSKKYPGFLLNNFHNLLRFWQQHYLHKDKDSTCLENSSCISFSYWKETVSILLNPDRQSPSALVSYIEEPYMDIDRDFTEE
UniProt Q6Q0C0: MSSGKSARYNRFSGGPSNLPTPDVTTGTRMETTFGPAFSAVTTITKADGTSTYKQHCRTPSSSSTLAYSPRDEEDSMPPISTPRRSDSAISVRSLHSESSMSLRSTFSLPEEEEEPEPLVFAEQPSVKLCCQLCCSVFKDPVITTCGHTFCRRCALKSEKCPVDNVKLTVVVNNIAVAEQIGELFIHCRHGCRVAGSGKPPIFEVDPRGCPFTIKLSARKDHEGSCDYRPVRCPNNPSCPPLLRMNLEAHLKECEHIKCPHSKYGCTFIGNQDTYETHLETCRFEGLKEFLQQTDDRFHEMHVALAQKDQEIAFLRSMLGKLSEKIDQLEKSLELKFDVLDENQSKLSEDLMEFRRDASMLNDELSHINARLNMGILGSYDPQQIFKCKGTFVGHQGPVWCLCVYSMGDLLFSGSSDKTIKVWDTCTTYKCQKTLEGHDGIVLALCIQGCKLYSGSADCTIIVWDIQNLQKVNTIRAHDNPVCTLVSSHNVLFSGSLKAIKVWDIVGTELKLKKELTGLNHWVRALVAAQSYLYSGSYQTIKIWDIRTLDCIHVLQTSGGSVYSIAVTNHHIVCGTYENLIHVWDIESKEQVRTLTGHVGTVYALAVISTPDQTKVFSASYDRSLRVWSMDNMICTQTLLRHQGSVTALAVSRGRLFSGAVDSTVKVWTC
UniProt Q9Y296, whole entry, looked up: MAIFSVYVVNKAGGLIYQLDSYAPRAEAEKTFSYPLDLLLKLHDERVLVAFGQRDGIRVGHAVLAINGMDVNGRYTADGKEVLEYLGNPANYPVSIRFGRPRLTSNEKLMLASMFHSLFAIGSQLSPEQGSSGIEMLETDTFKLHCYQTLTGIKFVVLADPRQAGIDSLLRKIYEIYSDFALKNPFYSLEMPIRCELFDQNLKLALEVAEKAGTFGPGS
UniProt Q629K1: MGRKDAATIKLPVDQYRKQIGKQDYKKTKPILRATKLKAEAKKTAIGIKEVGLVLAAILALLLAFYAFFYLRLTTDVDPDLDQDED
UniProt Q8TDR0: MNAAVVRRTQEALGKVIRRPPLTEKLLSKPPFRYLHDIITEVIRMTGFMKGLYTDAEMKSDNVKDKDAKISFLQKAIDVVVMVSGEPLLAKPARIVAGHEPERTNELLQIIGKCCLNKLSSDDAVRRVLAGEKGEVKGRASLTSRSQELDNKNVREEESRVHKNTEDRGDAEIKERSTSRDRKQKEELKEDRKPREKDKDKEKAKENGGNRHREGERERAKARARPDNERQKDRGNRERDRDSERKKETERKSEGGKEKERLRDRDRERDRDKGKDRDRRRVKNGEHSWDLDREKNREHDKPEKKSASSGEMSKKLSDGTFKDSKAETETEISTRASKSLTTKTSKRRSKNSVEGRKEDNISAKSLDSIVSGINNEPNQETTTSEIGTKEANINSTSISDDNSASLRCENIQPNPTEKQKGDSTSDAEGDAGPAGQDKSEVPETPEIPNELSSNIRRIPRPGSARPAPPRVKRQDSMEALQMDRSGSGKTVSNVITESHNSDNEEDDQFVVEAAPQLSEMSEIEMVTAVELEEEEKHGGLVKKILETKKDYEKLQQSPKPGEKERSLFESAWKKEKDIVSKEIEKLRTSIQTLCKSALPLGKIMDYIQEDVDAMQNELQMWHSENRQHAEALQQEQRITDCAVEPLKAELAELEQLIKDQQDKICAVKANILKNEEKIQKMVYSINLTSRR
UniProt Q92574: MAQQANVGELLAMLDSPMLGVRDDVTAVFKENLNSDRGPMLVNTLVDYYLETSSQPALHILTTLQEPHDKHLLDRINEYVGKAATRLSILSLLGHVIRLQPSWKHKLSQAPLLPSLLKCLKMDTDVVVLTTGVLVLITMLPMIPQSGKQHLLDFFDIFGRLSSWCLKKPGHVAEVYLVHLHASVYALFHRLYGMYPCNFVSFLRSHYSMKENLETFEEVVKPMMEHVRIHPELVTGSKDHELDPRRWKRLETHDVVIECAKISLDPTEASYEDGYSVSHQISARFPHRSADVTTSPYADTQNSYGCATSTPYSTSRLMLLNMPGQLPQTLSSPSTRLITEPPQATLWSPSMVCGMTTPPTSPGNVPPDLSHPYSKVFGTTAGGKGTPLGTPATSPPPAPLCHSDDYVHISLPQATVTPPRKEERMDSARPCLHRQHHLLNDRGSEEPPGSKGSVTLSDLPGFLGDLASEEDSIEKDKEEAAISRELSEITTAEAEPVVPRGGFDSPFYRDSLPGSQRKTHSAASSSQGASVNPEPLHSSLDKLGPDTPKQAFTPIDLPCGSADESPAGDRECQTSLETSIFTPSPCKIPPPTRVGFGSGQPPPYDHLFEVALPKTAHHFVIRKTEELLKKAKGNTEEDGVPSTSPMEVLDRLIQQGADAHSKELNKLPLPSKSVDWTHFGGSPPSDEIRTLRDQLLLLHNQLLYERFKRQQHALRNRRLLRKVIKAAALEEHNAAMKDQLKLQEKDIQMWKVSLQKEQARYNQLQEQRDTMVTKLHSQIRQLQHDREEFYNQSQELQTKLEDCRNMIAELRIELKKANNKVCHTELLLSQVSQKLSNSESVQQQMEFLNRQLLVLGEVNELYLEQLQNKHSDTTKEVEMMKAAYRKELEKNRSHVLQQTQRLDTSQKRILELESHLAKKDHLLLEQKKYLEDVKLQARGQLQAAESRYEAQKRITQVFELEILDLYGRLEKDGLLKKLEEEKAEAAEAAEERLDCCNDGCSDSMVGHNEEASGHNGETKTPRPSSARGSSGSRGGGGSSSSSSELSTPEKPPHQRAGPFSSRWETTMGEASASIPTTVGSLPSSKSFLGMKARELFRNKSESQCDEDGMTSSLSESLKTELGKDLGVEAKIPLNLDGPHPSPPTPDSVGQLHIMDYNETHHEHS
UniProt O00635: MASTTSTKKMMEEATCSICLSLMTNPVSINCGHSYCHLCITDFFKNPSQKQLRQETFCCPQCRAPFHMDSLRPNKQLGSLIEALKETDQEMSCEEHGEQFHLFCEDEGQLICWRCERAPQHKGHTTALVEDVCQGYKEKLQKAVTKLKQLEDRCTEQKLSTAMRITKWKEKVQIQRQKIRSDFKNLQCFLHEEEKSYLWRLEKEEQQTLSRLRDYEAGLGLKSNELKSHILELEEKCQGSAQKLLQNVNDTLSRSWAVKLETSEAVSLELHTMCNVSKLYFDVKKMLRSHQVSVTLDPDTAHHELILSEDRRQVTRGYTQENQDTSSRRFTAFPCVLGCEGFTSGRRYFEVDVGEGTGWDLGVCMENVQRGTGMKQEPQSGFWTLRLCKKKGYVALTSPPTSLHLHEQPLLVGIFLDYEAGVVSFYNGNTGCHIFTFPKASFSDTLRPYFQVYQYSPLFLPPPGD
UniProt Q8N4H5: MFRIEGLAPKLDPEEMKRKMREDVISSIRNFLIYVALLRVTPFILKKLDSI
UniProt O15164: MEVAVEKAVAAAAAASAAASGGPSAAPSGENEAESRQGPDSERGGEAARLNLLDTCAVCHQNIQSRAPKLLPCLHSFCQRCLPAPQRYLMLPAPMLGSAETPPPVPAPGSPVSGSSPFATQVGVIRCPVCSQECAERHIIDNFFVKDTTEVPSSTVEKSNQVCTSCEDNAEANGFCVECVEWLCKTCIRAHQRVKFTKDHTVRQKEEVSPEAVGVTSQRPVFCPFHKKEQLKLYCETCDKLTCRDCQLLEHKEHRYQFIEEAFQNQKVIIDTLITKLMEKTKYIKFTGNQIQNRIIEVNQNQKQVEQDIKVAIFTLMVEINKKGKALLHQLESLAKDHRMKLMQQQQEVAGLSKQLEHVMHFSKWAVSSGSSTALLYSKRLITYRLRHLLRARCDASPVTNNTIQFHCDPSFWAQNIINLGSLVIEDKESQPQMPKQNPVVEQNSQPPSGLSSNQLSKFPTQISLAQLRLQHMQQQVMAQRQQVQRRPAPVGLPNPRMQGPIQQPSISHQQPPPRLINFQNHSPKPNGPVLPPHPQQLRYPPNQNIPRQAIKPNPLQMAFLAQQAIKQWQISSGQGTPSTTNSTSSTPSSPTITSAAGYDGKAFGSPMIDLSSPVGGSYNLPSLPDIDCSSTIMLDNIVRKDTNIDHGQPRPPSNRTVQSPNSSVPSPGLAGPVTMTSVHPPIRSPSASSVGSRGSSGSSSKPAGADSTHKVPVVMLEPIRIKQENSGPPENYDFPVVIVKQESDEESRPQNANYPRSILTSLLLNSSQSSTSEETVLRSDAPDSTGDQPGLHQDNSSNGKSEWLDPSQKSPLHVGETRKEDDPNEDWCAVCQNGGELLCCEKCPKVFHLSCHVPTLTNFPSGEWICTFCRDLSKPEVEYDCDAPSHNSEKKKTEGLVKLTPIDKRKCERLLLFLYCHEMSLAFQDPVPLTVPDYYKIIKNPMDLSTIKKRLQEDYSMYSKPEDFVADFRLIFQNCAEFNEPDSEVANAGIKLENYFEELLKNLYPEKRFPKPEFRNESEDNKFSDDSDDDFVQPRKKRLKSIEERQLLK

What was measured:
Assay in all cases: log2 fold change, soluble protein after heating vs DMSO (PISA); higher = thermal stabilisation; K562 cells, 10 uM, 30 min; active = over 0.2 and 3.5 SD of the protein, either way, in both replicates (recomputed)
[1] = compound: C1=CC=C(C=C1)[C@H](COC2=CC3=C(C=C2)NC(=O)N3)NC(=O)C4=CC=CN(C4=O)CC5=CC(=C(C=C5)F)F
In short: (§1)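 K562 cells at 2×10^6 cells/mL were treated with 10 μM compound for 30 min. Aliquots were heated for 3 min across 48°C-58°C, pooled, and extracted in PBS with 0.5% NP-40 at 4°C; soluble protein was the supernatant after 21,000xg for 90 min. Soluble protein was quantified by TMTpro 16plex LC-MS/MS with channel sums equalised, and reported as log2 fold change in thermal stability against DMSO controls, with values from duplicates.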

[2] = compound: Cc1sc2c(c1C)C(c1ccc(Cl)cc1)=N[C@@H](CC(=O)OC(C)(C)C)c1nnc(C)n1-2
In short: as §1

[3] = compound: CC1=C2C(=CC=C1)N=C(N(C2=O)C3=CC=CC=C3C)CN4C=NC5=C(N=CN=C54)N
In short: as §1

[4] = compound: CC1=C(SC2=C1C(=N[C@H](C3=NN=C(N32)C)CC(=O)N)C4=CC=C(C=C4)Cl)C
In short: as §1

[5] = compound: c1ccc([C@@H]2C[C@H]2NC2CCNCC2)cc1
In short: as §1

Measured: log2 fold change

TRA2A (UniProt Q13595)
inactive: [1] -0.204 | [2] 0.087

TOM1 (UniProt O60784)
inactive: [1] -0.077 | [2] 0.039

TRAF3 (UniProt Q13114)
inactive: [3] 0.158

TPD52L2 isoform 7 (UniProt O43399)
inactive: [1] 0.017 | [4] 0.03 | [3] 0.001 | [2] 0.006 | [5] 0.047

TRAPPC6A isoform 2 (UniProt O75865)
inactive: [1] 0.182 | [4] 0 | [5] 0.063

TRMT5 (UniProt Q32P41)
inactive: [1] 0.039 | [3] 0.16 | [2] -0.092

TRAM2 (UniProt Q15035)
inactive: [1] 0.015 | [4] 0.057 | [3] 0.128 | [2] -0.009 | [5] -0.106

TRADD (UniProt Q15628)
inactive: [3] 0.143

TNRC6B (UniProt Q9UPQ9)
inactive: [1] 0.202 | [4] -0.057 | [2] 0.013 | [5] 0.013

TOR1AIP1 (UniProt Q5JTV8)
inactive: [1] 0.024 | [4] 0.067 | [5] -0.044

Taken from the entries so far (2 entries):
TNRC6B (UniProt Q9UPQ9)
inactive: [1] 0.202 | [4] -0.057 | [2] 0.013 | [5] 0.013

TOR1AIP1 (UniProt Q5JTV8)
inactive: [1] 0.024 | [4] 0.067 | [5] -0.044

(listing goes on)

TRIP11 (UniProt Q15643)
inactive: [1] -0.08 | [3] -0.001 | [2] 0.112

TRIM5 (UniProt Q9C035)
inactive: [4] 0.021 | [3] 0.023 | [2] 0.155 | [5] -0.004

TRIM65 (UniProt Q6PJ69)
inactive: [4] 0.039 | [3] 0.109 | [5] -0.041

TSC2 (UniProt P49815)
inactive: [1] 0.062 | [4] 0.099 | [2] -0.044 | [5] 0.317

TRIT1 (UniProt Q9H3H1)
inactive: [4] 0.141 | [5] 0.058

TRPC4AP (UniProt Q8TEL6)
inactive: [3] 0.079 | [2] 0.031

TRIP12 isoform 3 (UniProt Q14669)
inactive: [1] -0.013 | [3] 0.056 | [2] 0.106

TRAF7 (UniProt Q6Q0C0)
inactive: [1] -0.168 | [4] 0.22 | [3] 0.296 | [5] -0.082

TRAPPC4 (UniProt Q9Y296)
inactive: [1] -0.012 | [4] 0.032 | [3] 0.056 | [2] 0.04 | [5] 0.023

TRIM56 (UniProt Q9BRZ2)
inactive: [1] -0.11 | [4] -0.207 | [2] 0.208 | [5] 0.081

TPD52L2 isoform 3 (UniProt O43399)
inactive: [3] -0.035 | [2] -0.031

TRIM21 (UniProt P19474)
inactive: [1] -0.153 | [4] 0.069 | [2] -0.019 | [5] -0.241

TRIQK (UniProt Q629K1)
inactive: [1] 0.098 | [4] 0.028 | [2] -0.052 | [5] 0.048

TRAF3IP1 (UniProt Q8TDR0)
inactive: [4] 0.063 | [3] -0.147 | [5] -0.078

TSC1 (UniProt Q92574)
inactive: [4] -0.098 | [3] 0.152 | [2] -0.04 | [5] -0.021

TRIM41 (UniProt Q8WV44)
inactive: [3] -0.005

TRIM38 (UniProt O00635)
inactive: [1] 0.105 | [4] 0.084 | [3] 0.201 | [5] 0.065

TPST2 (UniProt O60704)
inactive: [1] 0.187 | [4] 0.038 | [3] 0.024 | [2] -0.036 | [5] 0.013

TOMM5 isoform 2 (UniProt Q8N4H5)
inactive: [1] 0.034 | [4] 0.047 | [3] -0.032 | [2] -0.029 | [5] 0.005

TRIO (UniProt O75962)
inactive: [1] -0.065 | [2] -0.119

TOM1L2 (UniProt Q6ZVM7)
inactive: [4] 0.138 | [3] 0.101 | [5] -0.001

TRIM24 (UniProt O15164)
inactive: [1] 0.002 | [3] 0.074 | [2] 0.024

TRPS1 isoform 2 (UniProt Q9UHF7)
inactive: [4] -0.114 | [5] -0.226

TNIP1 (UniProt Q15025)
inactive: [1] 0.062 | [2] 0.009

TPRG1L (UniProt Q5T0D9)
inactive: [2] -0.174
